Measurements as given in publication PMC7084690, “N-terminal Backbone Pairing Shifts in CCL5-^12AAA^14 Dimer Interface: Structural Significance of the FAY Sequence” (International Journal of Molecular Sciences, 2020).
Results are given in words; binding and its absence hold for the method and conditions named. Some entries that bind do so weakly or less than the wild type.

Biological target: T1, CCL5-F12A (human), P13501
T1 chain: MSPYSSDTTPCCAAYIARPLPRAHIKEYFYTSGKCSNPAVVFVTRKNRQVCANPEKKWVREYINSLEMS
Experiment: NMR titration; pH titration followed by 1H,15N-HSQC; this point pH 5.0 (for the wild type maintained until pH 6.0); 0.2 mM 15N-labelled protein, 25 mM sodium acetate, 150 mM NaCl, 10% D2O, 298 K; dimers to soluble oligomers, read from the loss of resonance intensity; both purified
Details: remark: other sources report otherwise

B1: CCL5-F12A, P13501 24-91 (natural protein)
chain: T1 chain
B1 was tested, and the binding was “binds”.
